These are yes or no findings as the source states them, for the method shown. Binding seen in cells or lysates may run through a third protein. Some entries that bind do so weakly or less than the wild type.
Legend:
[1] = molecular target: DDX17 (human (endogenous in SK-BR-3, MCF-7)) (UniProt Q92841); experiment: co-IP; as a2, but 20 µg RNase A added to the lysate during overnight mixing with the antibody
[2] = molecular target: DDX54 (human (endogenous in SK-BR-3, MCF-7)) (UniProt Q8TDD1); experiment: as above
[3] = molecular target: DHX9 (human (endogenous in SK-BR-3, MCF-7, MDA-MB-231)) (UniProt Q08211); experiment: as above
[4] = molecular target: DHX9 (human (endogenous in SK-BR-3, MCF-7, MDA-MB-231)) (UniProt Q08211); experiment: co-IP; as a2, but 20 U RNase III with MnCl2 added to the lysate during overnight mixing with the antibody
[5] = molecular target: DDX17 (human (endogenous in SK-BR-3, MCF-7)) (UniProt Q92841); experiment: co-IP; endogenous proteins; 1 mg RIPA lysate with RNaseOUT (no RNase), 2-10 µg antibody against the bait overnight at 4°C, Protein G Dynabeads, immunoblot for ADAR1; SK-BR-3, MCF-7, MDA-MB-231
[6] = molecular target: DDX54 (human (endogenous in SK-BR-3, MCF-7)) (UniProt Q8TDD1); experiment: as above
[7] = molecular target: DHX9 (human (endogenous in SK-BR-3, MCF-7, MDA-MB-231)) (UniProt Q08211); experiment: as above

Sequences of proteins named here, by UniProt entry; tags and fusion partners are left off.
UniProt Q92841: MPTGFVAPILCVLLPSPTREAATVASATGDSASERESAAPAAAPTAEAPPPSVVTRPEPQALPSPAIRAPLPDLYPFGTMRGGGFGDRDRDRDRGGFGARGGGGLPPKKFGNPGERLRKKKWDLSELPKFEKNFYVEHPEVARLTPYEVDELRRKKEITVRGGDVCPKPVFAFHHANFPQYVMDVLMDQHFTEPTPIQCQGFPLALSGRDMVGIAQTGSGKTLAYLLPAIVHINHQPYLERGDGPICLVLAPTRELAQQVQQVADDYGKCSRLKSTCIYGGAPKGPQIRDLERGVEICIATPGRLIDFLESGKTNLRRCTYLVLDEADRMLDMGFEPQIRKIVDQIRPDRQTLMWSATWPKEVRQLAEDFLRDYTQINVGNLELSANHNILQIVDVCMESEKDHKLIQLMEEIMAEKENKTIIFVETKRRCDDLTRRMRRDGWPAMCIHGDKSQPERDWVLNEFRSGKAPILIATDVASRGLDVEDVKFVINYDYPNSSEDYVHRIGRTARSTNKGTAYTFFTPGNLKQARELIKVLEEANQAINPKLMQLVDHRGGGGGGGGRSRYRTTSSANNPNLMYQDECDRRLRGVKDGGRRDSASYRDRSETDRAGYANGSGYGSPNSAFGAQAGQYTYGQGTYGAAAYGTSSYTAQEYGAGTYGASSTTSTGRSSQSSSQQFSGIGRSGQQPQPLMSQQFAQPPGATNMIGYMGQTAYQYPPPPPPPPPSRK
UniProt Q8TDD1: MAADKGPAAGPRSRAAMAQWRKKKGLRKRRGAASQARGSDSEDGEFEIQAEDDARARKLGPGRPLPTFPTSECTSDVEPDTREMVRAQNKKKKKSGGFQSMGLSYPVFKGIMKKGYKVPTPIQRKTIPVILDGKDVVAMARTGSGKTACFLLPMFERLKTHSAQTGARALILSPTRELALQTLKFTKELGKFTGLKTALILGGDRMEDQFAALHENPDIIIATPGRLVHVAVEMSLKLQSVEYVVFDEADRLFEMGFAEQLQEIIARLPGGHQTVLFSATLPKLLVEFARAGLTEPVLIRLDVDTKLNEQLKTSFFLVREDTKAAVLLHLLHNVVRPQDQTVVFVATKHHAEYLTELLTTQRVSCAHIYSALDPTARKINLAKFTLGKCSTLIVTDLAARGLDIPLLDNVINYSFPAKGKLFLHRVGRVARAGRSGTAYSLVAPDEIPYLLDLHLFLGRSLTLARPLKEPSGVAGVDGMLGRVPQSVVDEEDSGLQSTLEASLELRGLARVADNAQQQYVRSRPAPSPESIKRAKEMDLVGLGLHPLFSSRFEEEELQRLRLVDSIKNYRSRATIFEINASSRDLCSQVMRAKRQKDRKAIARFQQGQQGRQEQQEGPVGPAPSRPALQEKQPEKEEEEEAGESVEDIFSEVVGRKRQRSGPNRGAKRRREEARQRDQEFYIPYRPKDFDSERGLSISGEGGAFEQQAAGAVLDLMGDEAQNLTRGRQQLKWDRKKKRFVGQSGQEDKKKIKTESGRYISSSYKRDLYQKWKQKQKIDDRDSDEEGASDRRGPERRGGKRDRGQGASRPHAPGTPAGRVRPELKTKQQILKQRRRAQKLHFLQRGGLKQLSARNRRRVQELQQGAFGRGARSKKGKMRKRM
UniProt Q08211: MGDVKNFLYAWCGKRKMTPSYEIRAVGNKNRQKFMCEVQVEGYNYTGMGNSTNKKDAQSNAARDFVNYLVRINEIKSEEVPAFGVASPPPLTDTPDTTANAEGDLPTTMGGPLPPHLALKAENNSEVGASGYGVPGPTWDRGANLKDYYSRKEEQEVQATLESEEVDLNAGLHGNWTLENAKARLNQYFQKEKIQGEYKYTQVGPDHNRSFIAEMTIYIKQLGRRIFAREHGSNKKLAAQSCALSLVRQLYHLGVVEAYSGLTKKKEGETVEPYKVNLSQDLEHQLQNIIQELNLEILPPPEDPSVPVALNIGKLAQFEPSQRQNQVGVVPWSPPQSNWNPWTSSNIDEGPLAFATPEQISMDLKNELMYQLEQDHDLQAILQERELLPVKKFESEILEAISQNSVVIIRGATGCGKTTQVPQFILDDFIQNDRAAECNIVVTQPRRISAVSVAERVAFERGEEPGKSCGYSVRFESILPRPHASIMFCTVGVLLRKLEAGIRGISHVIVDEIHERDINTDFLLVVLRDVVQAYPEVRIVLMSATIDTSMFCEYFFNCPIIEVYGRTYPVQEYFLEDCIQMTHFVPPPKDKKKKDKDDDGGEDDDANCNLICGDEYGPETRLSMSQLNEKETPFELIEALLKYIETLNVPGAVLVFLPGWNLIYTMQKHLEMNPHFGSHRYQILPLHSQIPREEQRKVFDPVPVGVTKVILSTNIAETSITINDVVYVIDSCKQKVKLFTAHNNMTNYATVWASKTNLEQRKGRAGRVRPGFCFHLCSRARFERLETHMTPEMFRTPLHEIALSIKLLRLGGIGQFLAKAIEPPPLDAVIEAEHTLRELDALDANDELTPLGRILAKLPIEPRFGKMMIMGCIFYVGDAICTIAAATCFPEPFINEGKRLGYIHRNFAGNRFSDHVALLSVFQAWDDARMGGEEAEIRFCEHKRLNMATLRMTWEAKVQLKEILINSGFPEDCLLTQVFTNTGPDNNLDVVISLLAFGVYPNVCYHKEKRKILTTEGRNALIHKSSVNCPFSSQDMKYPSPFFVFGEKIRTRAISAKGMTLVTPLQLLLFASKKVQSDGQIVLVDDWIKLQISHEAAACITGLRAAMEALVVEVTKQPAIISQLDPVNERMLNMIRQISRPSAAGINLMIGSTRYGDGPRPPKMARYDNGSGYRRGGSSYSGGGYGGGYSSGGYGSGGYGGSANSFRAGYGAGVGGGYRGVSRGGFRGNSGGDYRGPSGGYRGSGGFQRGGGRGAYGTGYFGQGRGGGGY

Measured: binding

B1: ADAR1-p110 (protein, UniProt P55265-5 1-931)
chain: MAEIKEKICDYLFNVSDSSALNLAKNIGLTKARDINAVLIDMERQGDVYRQGTTPPIWHLTDKKRERMQIKRNTNSVPETAPAAIPETKRNAEFLTCNIPTSNASNNMVTTEKVENGQEPVIKLENRQEARPEPARLKPPVHYNGPSKAGYVDFENGQWATDDIPDDLNSIRAAPGEFRAIMEMPSFYSHGLPRCSPYKKLTECQLKNPISGLLEYAQFASQTCEFNMIEQSGPPHEPRFKFQVVINGREFPPAEAGSKKVAKQDAAMKAMTILLEEAKAKDSGKSEESSHYSTEKESEKTAESQTPTPSATSFFSGKSPVTTLLECMHKLGNSCEFRLLSKEGPAHEPKFQYCVAVGAQTFPSVSAPSKKVAKQMAAEEAMKALHGEATNSMASDNQPEGMISESLDNLESMMPNKVRKIGELVRYLNTNPVGGLLEYARSHGFAAEFKLVDQSGPPHEPKFVYQAKVGGRWFPAVCAHSKKQGKQEAADAALRVLIGENEKAERMGFTEVTPVTGASLRRTMLLLSRSPEAQPKTLPLTGSTFHDQIAMLSHRCFNTLTNSFQPSLLGRKILAAIIMKKDSEDMGVVVSLGTGNRCVKGDSLSLKGETVNDCHAEIISRRGFIRFLYSELMKYNSQTAKDSIFEPAKGGEKLQIKKTVSFHLYISTAPCGDGALFDKSCSDRAMESTESRHYPVFENPKQGKLRTKVENGEGTIPVESSDIVPTWDGIRLGERLRTMSCSDKILRWNVLGLQGALLTHFLQPIYLKSVTLGYLFSQGHLTRAICCRVTRDGSAFEDGLRHPFIVNHPKVGRVSIYDSKRQSGKTKETSVNWCLADGYDLEILDGTRGTVDGPRNELSRVSKKNIFLLFKKLCSFRYRRDLLRLSYGEAKKAARDYETAKNYFKKGLKDMGYGNWISKPQEEKNFYLCPV
binds: [1] | [2] | [3] | [4] | [5] | [6] | [7]

B2: ADAR1-p150 (protein, UniProt P55265-1 1-1226)
chain: MNPRQGYSLSGYYTHPFQGYEHRQLRYQQPGPGSSPSSFLLKQIEFLKGQLPEAPVIGKQTPSLPPSLPGLRPRFPVLLASSTRGRQVDIRGVPRGVHLRSQGLQRGFQHPSPRGRSLPQRGVDCLSSHFQELSIYQDQEQRILKFLEELGEGKATTAHDLSGKLGTPKKEINRVLYSLAKKGKLQKEAGTPPLWKIAVSTQAWNQHSGVVRPDGHSQGAPNSDPSLEPEDRNSTSVSEDLLEPFIAVSAQAWNQHSGVVRPDSHSQGSPNSDPGLEPEDSNSTSALEDPLEFLDMAEIKEKICDYLFNVSDSSALNLAKNIGLTKARDINAVLIDMERQGDVYRQGTTPPIWHLTDKKRERMQIKRNTNSVPETAPAAIPETKRNAEFLTCNIPTSNASNNMVTTEKVENGQEPVIKLENRQEARPEPARLKPPVHYNGPSKAGYVDFENGQWATDDIPDDLNSIRAAPGEFRAIMEMPSFYSHGLPRCSPYKKLTECQLKNPISGLLEYAQFASQTCEFNMIEQSGPPHEPRFKFQVVINGREFPPAEAGSKKVAKQDAAMKAMTILLEEAKAKDSGKSEESSHYSTEKESEKTAESQTPTPSATSFFSGKSPVTTLLECMHKLGNSCEFRLLSKEGPAHEPKFQYCVAVGAQTFPSVSAPSKKVAKQMAAEEAMKALHGEATNSMASDNQPEGMISESLDNLESMMPNKVRKIGELVRYLNTNPVGGLLEYARSHGFAAEFKLVDQSGPPHEPKFVYQAKVGGRWFPAVCAHSKKQGKQEAADAALRVLIGENEKAERMGFTEVTPVTGASLRRTMLLLSRSPEAQPKTLPLTGSTFHDQIAMLSHRCFNTLTNSFQPSLLGRKILAAIIMKKDSEDMGVVVSLGTGNRCVKGDSLSLKGETVNDCHAEIISRRGFIRFLYSELMKYNSQTAKDSIFEPAKGGEKLQIKKTVSFHLYISTAPCGDGALFDKSCSDRAMESTESRHYPVFENPKQGKLRTKVENGEGTIPVESSDIVPTWDGIRLGERLRTMSCSDKILRWNVLGLQGALLTHFLQPIYLKSVTLGYLFSQGHLTRAICCRVTRDGSAFEDGLRHPFIVNHPKVGRVSIYDSKRQSGKTKETSVNWCLADGYDLEILDGTRGTVDGPRNELSRVSKKNIFLLFKKLCSFRYRRDLLRLSYGEAKKAARDYETAKNYFKKGLKDMGYGNWISKPQEEKNFYLCPV
binds: [4] | [7]

Source: paper PMC10993856
